# Reference: PMC3324426
# Amino acid sequences for entries named in this document (tags omitted). A change or cut given only in a name is not applied to a line headed by its entry. Residues count along the entry.
# UniProt P28799, residues 18-593: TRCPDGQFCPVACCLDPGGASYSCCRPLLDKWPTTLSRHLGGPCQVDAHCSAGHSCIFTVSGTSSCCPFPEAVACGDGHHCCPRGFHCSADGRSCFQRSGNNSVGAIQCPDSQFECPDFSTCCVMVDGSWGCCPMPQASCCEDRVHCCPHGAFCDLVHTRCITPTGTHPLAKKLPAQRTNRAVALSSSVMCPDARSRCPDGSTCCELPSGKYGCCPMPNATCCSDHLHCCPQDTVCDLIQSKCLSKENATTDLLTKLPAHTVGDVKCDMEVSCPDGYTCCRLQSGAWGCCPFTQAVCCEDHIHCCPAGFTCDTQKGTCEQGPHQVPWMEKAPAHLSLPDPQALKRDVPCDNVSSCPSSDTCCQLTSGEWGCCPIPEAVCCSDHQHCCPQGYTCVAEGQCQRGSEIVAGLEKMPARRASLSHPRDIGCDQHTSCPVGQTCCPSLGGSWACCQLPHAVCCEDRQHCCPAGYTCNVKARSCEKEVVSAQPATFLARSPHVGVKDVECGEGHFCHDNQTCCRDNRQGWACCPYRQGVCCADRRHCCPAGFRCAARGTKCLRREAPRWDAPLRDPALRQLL
# UniProt P39900: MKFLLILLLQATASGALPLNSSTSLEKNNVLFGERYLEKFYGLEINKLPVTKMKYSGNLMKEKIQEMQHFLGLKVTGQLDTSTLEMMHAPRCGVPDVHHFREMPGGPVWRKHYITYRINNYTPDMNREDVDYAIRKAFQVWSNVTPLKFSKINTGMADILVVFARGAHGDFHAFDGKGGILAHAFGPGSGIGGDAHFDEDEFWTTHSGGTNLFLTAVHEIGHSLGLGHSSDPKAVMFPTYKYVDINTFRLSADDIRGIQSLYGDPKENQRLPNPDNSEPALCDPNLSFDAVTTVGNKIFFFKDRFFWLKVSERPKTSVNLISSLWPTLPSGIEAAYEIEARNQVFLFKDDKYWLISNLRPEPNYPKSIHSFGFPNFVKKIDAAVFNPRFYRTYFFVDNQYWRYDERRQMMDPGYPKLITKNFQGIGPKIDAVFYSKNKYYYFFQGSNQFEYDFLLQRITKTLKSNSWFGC
# These are yes or no findings as the source states them, for the method shown. In cells and extracts the contact can be indirect. A result given as binding can be weak or reduced; the word gives no strength.
# Biological target: Progranulin (human (endogenous in primary fetal microglia)) (UniProt P28799)
# Test: co-IP; untreated (control) microglial cell lysates, pre-cleared with protein A agarose, anti-PGRN (C-terminal) rabbit antibody 1 h, protein A agarose overnight at 4°C; immunoblot for PGRN and MMP-12 with clean-blot IP detection reagent
substance,measurement,value
Matrix metalloproteinase-12 (macrophage elastase) (from UniProt P39900) (enzyme),binding,binds
